Laboratory results published in patent publication US8211861B2, “Compositions for and methods of enhancing the immune response to antigens” (Wittycell, priority 2007, dated 2012).
Some of these results come from one statement about several compounds together. For at least one compound, name, drawing or mass did not settle the structure.

System: Ova-specific target cells
Test: in vivo specific cytotoxic T cell (CD8+) response, specific lysis of Ova-specific target cells
Design: species or system mouse
Details: Example 5 Experiment B, FIG. 8; IM, 50 μg OVA with 10 ng adjuvant; blood day 11

Structure (SMILES)	percentage of specific lysis of the target cells by CD8+ T cells
CCCCCCCCCCCCCCCCCCCCCCCCCC(=O)N[C@@H](CO[C@H]1O[C@H](CNC(C)=O)[C@H](O)[C@H](O)[C@H]1O)[C@H](O)[C@H](O)CCCCCCCCCCCCCC [PBS-14]	over 60%
CCCCCCCCCCCCCCCCCCCCCCCC(=O)N[C@@H](CO[C@H]1O[C@H](CNC(C)=O)[C@H](O)[C@H](O)[C@H]1O)[C@H](O)[C@H](O)CCCCCCCCCCCCCC [PBS-96]	over 60%
